Experimental data taken from patent publication US10272082B2, “Combination ALS therapy” (Cytokinetics, Inc., priority 2011, dated 2019).
Like-named read-outs stand apart in the source and are kept apart here.

Protein sequences, listed by entry. Tags and fused reporters are not part of them.
UniProt P05177, whole entry: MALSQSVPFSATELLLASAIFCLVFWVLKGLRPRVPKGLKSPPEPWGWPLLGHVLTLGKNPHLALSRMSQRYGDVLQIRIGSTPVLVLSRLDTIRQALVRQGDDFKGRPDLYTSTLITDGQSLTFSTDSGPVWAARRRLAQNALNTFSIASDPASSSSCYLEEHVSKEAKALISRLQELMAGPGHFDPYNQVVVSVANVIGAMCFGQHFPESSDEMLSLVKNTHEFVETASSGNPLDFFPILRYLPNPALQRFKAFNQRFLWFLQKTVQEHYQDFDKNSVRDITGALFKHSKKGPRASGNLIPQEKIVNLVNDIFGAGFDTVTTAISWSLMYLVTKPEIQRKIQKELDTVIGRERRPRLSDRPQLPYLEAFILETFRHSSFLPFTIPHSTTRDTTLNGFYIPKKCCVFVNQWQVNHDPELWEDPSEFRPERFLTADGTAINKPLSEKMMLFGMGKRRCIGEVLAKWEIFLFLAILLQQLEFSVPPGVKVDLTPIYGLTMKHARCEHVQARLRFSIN

Columns and labels:
clinical = conditions: both, human, in vivo, po, healthy subjects
[1] = ALS patients; for increase of riluzole plasma levels by CK-2017357: across all dose levels of CK-2017357 (125, 250, 375 mg daily), riluzole 50 mg daily
CYP1A2 = CYP1A2 (Homo sapiens, UniProt P05177); conditions: in humans; cited from earlier work
[2] = ALS patients; for riluzole AUC24 h, CK357 = 0 mg: riluzole 50 mg b.i.d. + CK-2017357 placebo; for riluzole AUC24 h, CK357 = 250 mg: riluzole 50 mg b.i.d. + single dose CK-2017357 250 mg; for riluzole AUC24 h, CK357 = 500 mg: riluzole 50 mg b.i.d. + single dose CK-2017357 500 mg

## Nc1nc2ccc(OC(F)(F)F)cc2s1 [riluzole]
clinical; 50 mg, Mean, riluzole 50 mg single oral dose alone (Period 1)
  Tmax: 1.1 h
clinical; 50 mg, Median, riluzole 50 mg single oral dose alone (Period 1)
  Tmax: 1.3 h
clinical; Mean, riluzole 50 mg single oral dose + steady-state CK-2017357 250 mg QD (Period 2)
  Tmax: 1.2 h
clinical; Median, riluzole 50 mg single oral dose + steady-state CK-2017357 250 mg QD (Period 2)
  Tmax: 1 h
[1]
  increase of riluzole plasma levels by CK-2017357: approximately doubled
[1]; listed as Riluzole
  increase of riluzole plasma levels by CK-2017357: approximately 2 fold
[1]; riluzole dose reduced to 50 mg daily, with CK-2017357
  adverse events attributable to higher riluzole levels: no adverse events were reported
CYP1A2
  primary metabolizing enzyme: primarily metabolized by CYP1A2
[2]; Max
  riluzole AUC24 h, CK357 = 0 mg: 4841.83 ng·h/mL
  riluzole AUC24 h, CK357 = 250 mg: 7371.82 ng·h/mL
  riluzole AUC24 h, CK357 = 500 mg: 9116.2 ng·h/mL
[2]; Min
  riluzole AUC24 h, CK357 = 0 mg: 307.49 ng·h/mL
  riluzole AUC24 h, CK357 = 250 mg: 887.4 ng·h/mL
  riluzole AUC24 h, CK357 = 500 mg: 830.83 ng·h/mL
[2]; in the presence of CK-2017357, riluzole 50 mg BID, FIG. 3
  change of mean riluzole Cmax: roughly doubled
